Publication PMC9837762
These are yes or no findings as the source states them, for the method shown. Binding seen in cells or lysates may run through a third protein. Some entries that bind do so weakly or less than the wild type. Sequences can lack the tags named with a protein.

Chains of the proteins cited; added tags and fusions are not shown.
UniProt Q7Z434: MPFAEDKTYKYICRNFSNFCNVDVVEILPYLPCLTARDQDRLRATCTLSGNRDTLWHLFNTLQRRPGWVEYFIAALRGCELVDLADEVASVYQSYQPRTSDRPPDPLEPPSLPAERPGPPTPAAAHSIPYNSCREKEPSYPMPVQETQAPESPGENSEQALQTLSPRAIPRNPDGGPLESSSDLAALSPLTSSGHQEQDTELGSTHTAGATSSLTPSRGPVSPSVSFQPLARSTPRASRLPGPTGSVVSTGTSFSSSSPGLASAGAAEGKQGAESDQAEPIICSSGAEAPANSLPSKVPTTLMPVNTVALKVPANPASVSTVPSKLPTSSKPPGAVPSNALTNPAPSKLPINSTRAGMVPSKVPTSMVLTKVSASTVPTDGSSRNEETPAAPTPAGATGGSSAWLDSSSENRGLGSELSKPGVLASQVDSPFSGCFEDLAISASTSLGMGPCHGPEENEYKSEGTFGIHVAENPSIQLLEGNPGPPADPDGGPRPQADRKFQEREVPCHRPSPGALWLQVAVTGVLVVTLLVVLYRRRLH

Molecular target: T1, HA-MDA5 (melanoma differentiation–associated protein 5) (UniProt Q9BYX4)
T1 sequence: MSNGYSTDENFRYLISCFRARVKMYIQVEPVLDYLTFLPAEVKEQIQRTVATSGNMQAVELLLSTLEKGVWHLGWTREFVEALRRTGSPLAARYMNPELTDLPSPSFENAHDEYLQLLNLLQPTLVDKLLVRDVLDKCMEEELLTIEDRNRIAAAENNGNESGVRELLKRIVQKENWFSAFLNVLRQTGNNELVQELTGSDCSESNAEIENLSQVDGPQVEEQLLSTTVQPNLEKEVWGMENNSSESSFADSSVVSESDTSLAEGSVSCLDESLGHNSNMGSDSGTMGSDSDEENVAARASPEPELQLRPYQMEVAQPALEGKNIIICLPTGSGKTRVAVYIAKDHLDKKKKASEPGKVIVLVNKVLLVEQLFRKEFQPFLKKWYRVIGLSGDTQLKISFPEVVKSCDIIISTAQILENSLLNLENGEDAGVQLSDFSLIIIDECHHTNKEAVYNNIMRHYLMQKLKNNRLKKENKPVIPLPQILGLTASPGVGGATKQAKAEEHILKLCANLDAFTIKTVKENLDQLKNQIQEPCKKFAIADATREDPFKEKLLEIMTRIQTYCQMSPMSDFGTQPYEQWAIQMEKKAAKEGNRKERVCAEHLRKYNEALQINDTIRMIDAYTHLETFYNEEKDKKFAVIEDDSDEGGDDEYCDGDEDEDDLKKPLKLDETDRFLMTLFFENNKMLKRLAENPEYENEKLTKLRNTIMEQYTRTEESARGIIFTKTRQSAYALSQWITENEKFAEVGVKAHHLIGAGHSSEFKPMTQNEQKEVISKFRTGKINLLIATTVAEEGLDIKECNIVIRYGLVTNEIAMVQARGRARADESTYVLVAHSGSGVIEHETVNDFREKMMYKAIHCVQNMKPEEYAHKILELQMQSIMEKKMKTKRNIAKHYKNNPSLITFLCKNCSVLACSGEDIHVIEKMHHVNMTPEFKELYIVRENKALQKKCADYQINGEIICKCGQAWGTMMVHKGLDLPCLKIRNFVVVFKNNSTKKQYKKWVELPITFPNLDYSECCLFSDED
Assay: co-IP

**Q.** Which binding does the source give for “Myc-MAVS (mitochondrial antiviral signaling protein) (from UniProt Q7Z434 1-540)” here?
**A.** binds
